Test results: PubChem BioAssay AID248 (DTP/NCI, 2004)
The list shows only some results of the screen, not a fair sample: it gathers tests that were run many times, whatever their T/C, doses with no T/C, and many T/C values between a quarter and a half above the control. Other doses and runs of a compound stand elsewhere. T/C gives the treated animals as a percentage of the vehicle group. Some entries give survivors of the animals treated and no T/C: the source holds a T/C of zero for them, seemingly a mark for toxic or unscored doses. Some doses without a T/C left all or most animals alive at the check, yet need not have been tolerated: the source hardly ever lists a survival T/C far under the control, and the zero likely stands for such cases as well. Survivors were counted at the toxicity check, usually on the fifth day, unless a day is given; later deaths do not show. Schedules are NCI's codes, read here as Q, the interval in days (D) or hours (H), X, the number of doses. Some doses were run more than once; the values are given in rising order. Some structures stand for samples that the source files as different forms (salt, stereo form or complex); doses refer to the form tested. For survival time, the PubChem record calls one and a half times the control and up active, and a quarter to a half above the control has no call in these data; cut-offs in other NCI protocols can differ. Some schedules carry Z or #; the key to these is not given.

Tested on: L1210 leukemia ip in BDF1 mice, survival T/C
Test: NCI In Vivo Anticancer Drug Screen. Data for tumor model L1210 Leukemia (intraperitoneal) in B6D2F1 (BDF1) mice
Conditions: T/C endpoint: mean survival time, higher T/C = longer survival
[1] = dose: 50.0 mg/kg/injection, schedule: Q01DX001 (ip), vehicle: carboxymethylcellulose (CMC)
[2] = dose: 80.0 mg/kg/injection, schedule: Q01DX001 (ip), vehicle: carboxymethylcellulose (CMC)
[3] = dose: 100.0 mg/kg/injection, schedule: Q01DX001 (ip), vehicle: carboxymethylcellulose (CMC)
[4] = dose: 200.0 mg/kg/injection, schedule: Q01DX001 (ip), vehicle: carboxymethylcellulose (CMC)
[5] = dose: 400.0 mg/kg/injection, schedule: Q01DX001 (ip), vehicle: carboxymethylcellulose (CMC)
[6] = dose: 400.0 mg/kg/injection, schedule: Q01DX009 (ip), vehicle: saline with Tween-80
[7] = dose: 200.0 mg/kg/injection, schedule: Q01DX001 (ip), vehicle: saline
[8] = dose: 400.0 mg/kg/injection, schedule: Q01DX001 (ip), vehicle: saline
[9] = dose: 400.0 mg/kg/injection, schedule: Q01DX009 (ip), vehicle: Klucel (hydroxypropylcellulose) (HPC)
[10] = dose: 400.0 mg/kg/injection, schedule: Q04DX003 (ip), vehicle: saline
[11] = dose: 200.0 mg/kg/injection, schedule: Q01DX009 (ip), vehicle: saline
[12] = dose: 200.0 mg/kg/injection, schedule: Q04DX002 (ip), vehicle: Klucel (hydroxypropylcellulose) (HPC)
[13] = dose: 200.0 mg/kg/injection, schedule: Q01DX009 (ip), vehicle: Klucel (hydroxypropylcellulose) (HPC)

With `CC(C)N(CC#N)C(C)C` the survivor count (dose: 1.0 mg/kg/injection, schedule: Q01DX009 (ip), vehicle: saline with Tween-80) was 0 of 6.

`CN(C)C(=O)On1cccc1C#N` was tested, and the survivor count (dose: 6.25 mg/kg/injection, schedule: Q01DX001 (ip), vehicle: saline with Tween-80) was 1 of 3, the survivor count (dose: 12.5 mg/kg/injection, schedule: Q01DX001 (ip), vehicle: saline with Tween-80) was 0 of 3 and the survivor count (dose: 25.0 mg/kg/injection, schedule: Q01DX001 (ip), vehicle: saline with Tween-80) was 0 of 3.

`Nc1ccc2nc3ccc(=O)cc-3n(-c3ccccc3)c2c1` was tested, and the T/C (dose: 4.0 mg/kg/injection, schedule: Q01DX Z (ip), vehicle: methylcellulose (MC)) was 127 % of control, the T/C (dose: 4.8 mg/kg/injection, schedule: Q01DX Z (ip), vehicle: methylcellulose (MC)) was 126 and 129 % of control and the T/C (dose: 7.2 mg/kg/injection, schedule: Q01DX Z (ip), vehicle: methylcellulose (MC)) was 129 and 134 % of control. The T/C (dose: 8.0 mg/kg/injection, schedule: Q01DX Z (ip), vehicle: methylcellulose (MC)) was 127 % of control, the survivor count [1] was 0 of 4 and the survivor count [2] was 0 of 4. For the same molecule, the survivor count [3] was 2 of 4, the survivor count [4] was 0 of 4 and the survivor count [5] was 0 of 4.

In the case of `O=C(N/N=C/c1ccco1)c1ccccc1`, the survivor count [6] is reported as 0 of 3 and 1 of 6.

In the case of `CCCCCCC(O)C(=O)O` (configuration not stated), the survivor count (dose: 400.0 mg/kg/injection, schedule: Q04DX002 (ip), vehicle: saline with Tween-80) is reported as 0 of 3.

`CC1(OO)CC(=O)OO1` (configuration not stated) was tested, and the survivor count (dose: 100.0 mg/kg/injection, schedule: Q01DX001 (ip), vehicle: saline) was 0 of 6, the survivor count [7] was 0 of 6 and the survivor count [8] was 0 of 6.

For `CCCCCCc1cc(CN(C2CCCCC2)C2CCCCC2)c(O)cc1O`, the survivor count [7] was 6 of 6.

In the case of `O=C1c2cccc3c([N+](=O)[O-])ccc(c23)C(=O)N1NCCO`, the survivor count (dose: 400.0 mg/kg/injection, schedule: Q04DX003 (ip), vehicle: carboxymethylcellulose (CMC)) is reported as 1 of 6.

With `CCCCCCCCN(C)N=Nc1ccc(C(N)=O)cc1` the T/C (dose: 266.0 mg/kg/injection, schedule: Q01DX009 (ip), vehicle: Klucel (hydroxypropylcellulose) (HPC)) was 135 % of control and the T/C [9] was 130 % of control.

In the case of `O=c1[nH]c(=O)c2n[nH]nc2[nH]1`, the survivor count (dose: 31.0 mg/kg/injection, schedule: Q01DX015 (ip), vehicle: carboxymethylcellulose (CMC)) is reported as 6 of 6, the survivor count (dose: 62.0 mg/kg/injection, schedule: Q01DX015 (ip), vehicle: carboxymethylcellulose (CMC)) is reported as 6 of 6 and the survivor count (dose: 125.0 mg/kg/injection, schedule: Q01DX015 (ip), vehicle: carboxymethylcellulose (CMC)) is reported as 6 of 6. For the same molecule, the survivor count (dose: 250.0 mg/kg/injection, schedule: Q01DX015 (ip), vehicle: carboxymethylcellulose (CMC)) was 6 of 6 and the survivor count (dose: 500.0 mg/kg/injection, schedule: Q01DX015 (ip), vehicle: carboxymethylcellulose (CMC)) was 6 of 6.

With `CCSC(=O)N1c2ccc(C)cc2C=CC1C#N` (configuration not stated) the survivor count [6] was 5 of 6.

`N#C/C(N)=C(\C#N)N=CC=N/C(C#N)=C(/N)C#N` was tested, and the survivor count (dose: 200.0 mg/kg/injection, schedule: Q01DX001 (ip), vehicle: Klucel (hydroxypropylcellulose) (HPC)) was 0 of 6 and the survivor count (dose: 400.0 mg/kg/injection, schedule: Q01DX001 (ip), vehicle: Klucel (hydroxypropylcellulose) (HPC)) was 0 of 6.

For `O=c1[nH]cnc2[nH]ncc12`, the survivor count (dose: 200.0 mg/kg/injection, schedule: Q01DX001 (ip), vehicle: saline with Tween-80) was 0 of 6, the survivor count [7] was 2 of 4 and the survivor count [5] was 1 of 4. For the same molecule, the survivor count (dose: 400.0 mg/kg/injection, schedule: Q01DX001 (ip), vehicle: saline with Tween-80) was 0 of 6 and the survivor count [8] was 0 of 4.

For `ClCCCOC1CCCCO1` (configuration not stated), the survivor count (dose: 400.0 mg/kg/injection, schedule: Q04DX003 (ip), vehicle: Klucel (hydroxypropylcellulose) (HPC)) was 3 of 3.

`CC(=O)CC(=O)NCc1cccnc1` was tested, and the survivor count (dose: 100.0 mg/kg/injection, schedule: Q04DX003 (ip), vehicle: saline) was 6 of 6.

`CCN(CC)CCNc1ncnc2c1cnn2-c1ccc(Cl)cc1` was tested, and the survivor count [6] was 1 of 6.

For `CC(C)(C)OC(=O)NCC(=O)O`, the survivor count [10] was 2 of 6.

With `O=C(CCCc1ccc(N(CCCl)CCCl)cc1)OCCc1ccccc1` the T/C (dose: 100.0 mg/kg/injection, schedule: Q04DX002 (ip), vehicle: saline) was 132 % of control.

`C/C=C/CC1(Cc2ccccc2)C(=O)NC(=S)NC1=O` was tested, and the survivor count (dose: 40.0 mg/kg/injection, schedule: Q01DX001 (ip), vehicle: saline) was 1 of 6, the survivor count (dose: 75.0 mg/kg/injection, schedule: Q01DX001 (ip), vehicle: other) was 1 of 6 and the survivor count (dose: 75.0 mg/kg/injection, schedule: Q01DX001 (ip), vehicle: saline) was 2 of 6. The survivor count (dose: 150.0 mg/kg/injection, schedule: Q01DX001 (ip), vehicle: other) was 0 of 6, the survivor count (dose: 150.0 mg/kg/injection, schedule: Q01DX001 (ip), vehicle: saline) was 0 of 6 and the survivor count (dose: 300.0 mg/kg/injection, schedule: Q01DX001 (ip), vehicle: other) was 0 of 6. The survivor count (dose: 300.0 mg/kg/injection, schedule: Q01DX001 (ip), vehicle: saline) was 0 of 6.

With `Cc1nc(NN)c(C(N)=O)nc1C` the survivor count (dose: 100.0 mg/kg/injection, schedule: Q01DX009 (ip), vehicle: saline) was 0 of 6 and the survivor count [11] was 0 of 6.

For `CN1CCC=C(C(=O)N2c3ccccc3CCc3ccccc32)C1`, the survivor count [11] was 3 of 6 and the survivor count [10] was 0 of 6.

In the case of `CCOC(=O)NCC(CCN(C)C)(CN(C)C)c1cccc2ccccc12` (configuration not stated), the survivor count [12] is reported as 0 of 3.

With `Cc1cc2ncn(CC(=O)NN)c2cc1C` the survivor count (dose: 200.0 mg/kg/injection, schedule: Q01DX009 (ip), vehicle: saline with Tween-80) was 6 of 6 and the survivor count [6] was 6 of 6.

For `CCCCCC(O)C1C(=O)OC(C)C(O)/C=C/C=C/C=C/C=C/C=C(\C)C(O)C(O)C(O)CC(O)CC(O)CC(O)CC(O)CC1O` (configuration not stated), the survivor count (dose: 5.0 mg/kg/injection, schedule: Q01DX001 (ip), vehicle: carboxymethylcellulose (CMC)) was 0 of 4, the survivor count (dose: 10.0 mg/kg/injection, schedule: Q01DX001 (ip), vehicle: carboxymethylcellulose (CMC)) was 0 of 4 and the survivor count (dose: 20.0 mg/kg/injection, schedule: Q01DX001 (ip), vehicle: carboxymethylcellulose (CMC)) was 1 of 4. For the same molecule, the survivor count (dose: 40.0 mg/kg/injection, schedule: Q01DX001 (ip), vehicle: carboxymethylcellulose (CMC)) was 0 of 4, the survivor count [1] was 0 of 4 and the survivor count [2] was 0 of 4. For the same molecule, the survivor count [3] was 0 of 4, the survivor count [4] was 0 of 4 and the survivor count [5] was 0 of 4 and 1 of 4.

For `CCCCOP(=O)(O)OCCCC.[Cd]`, the survivor count (dose: 50.0 mg/kg/injection, schedule: Q01DX009 (ip), vehicle: Klucel (hydroxypropylcellulose) (HPC)) was 0 of 6, the survivor count (dose: 100.0 mg/kg/injection, schedule: Q01DX009 (ip), vehicle: Klucel (hydroxypropylcellulose) (HPC)) was 0 of 6 and the survivor count [13] was 0 of 6. For the same molecule, the survivor count [9] was 0 of 6.

In the case of `Nc1cccc(NC(=O)Nc2ccccc2)c1`, the survivor count [12] is reported as 3 of 3.

With `C#CCOC(C(=O)OC1CCN(C)CC1)(c1ccccc1)c1ccccc1` the survivor count (dose: 200.0 mg/kg/injection, schedule: Q04DX003 (ip), vehicle: saline) was 0 of 6 and the survivor count [10] was 0 of 6.

For `CCCCCCCCCCCC(=O)N/N=C(\C)c1cccc2ccccc12`, the survivor count [13] was 6 of 6 and the survivor count [9] was 0 of 6.
